Measured values from PubChem BioAssay AID328 (DTP/NCI, 2004).
The list does not hold the whole screen: it gathers tests that were run many times, whatever their T/C, doses with no T/C, and many T/C values between a quarter and a half above the control. Further doses and runs are listed elsewhere. T/C gives the treated animals as a percentage of the vehicle group. Some entries give survivors of the animals treated and no T/C: the source files T/C as zero there, which appears to mark a toxic dose or a test without result, not a measured value. Some doses without a T/C left all or most animals alive at the check, yet need not have been tolerated: the source hardly ever lists a survival T/C far under the control, and the zero likely stands for such cases as well. Survivors were counted at the toxicity check, usually on the fifth day, unless a day is given; later deaths do not show. Schedule codes are those of the source, read here as Q, the interval in days (D) or hours (H), X, the number of doses. For survival time, this PubChem deposit counts one and a half times the control or more as active, and values a quarter to a half above the control carry no call in these data; other NCI protocols may use other cut-offs. Some doses were run more than once; the values are given in rising order.

System: BDF1 mice, P388 leukemia ip, median survival T/C
Test: NCI In Vivo Anticancer Drug Screen. Data for tumor model P388 Leukemia (intraperitoneal) in B6D2F1 (BDF1) mice
Settings: T/C endpoint: median survival time, higher T/C = longer survival
Method: The antitumor activity of compounds was measured in mice bearing transplantable tumors. Survival or tumor size were measured and the results are expressed as the measurement made in the treated group (T) divided by the measurement made in the vehicle treated control group (C). The tumor model used in this assay is P388 Leukemia (intraperitoneal) in B6D2F1 (BDF1) mice

## O=C(O)c1ccccc1O.O=C(O)c1ccccc1O.[O]=[V]
dose: 32.0 mg/kg/injection, schedule: Q01DX010 (ip), vehicle: carboxymethylcellulose (CMC)
  survivor count: 0 of 6
dose: 64.0 mg/kg/injection, schedule: Q01DX010 (ip), vehicle: carboxymethylcellulose (CMC)
  survivor count: 0 of 6

## ClCCN(CCCl)CCNc1ccnc2cc(Cl)ccc12
dose: 0.25 mg/kg/injection, schedule: Q01DX009 (ip), vehicle: saline
  T/C: 125 and 136 % of control
dose: 0.5 mg/kg/injection, schedule: Q01DX009 (ip), vehicle: saline
  T/C: 130 % of control
dose: 0.88 mg/kg/injection, schedule: Q01DX009 (ip), vehicle: saline
  T/C: 141 % of control
dose: 1.32 mg/kg/injection, schedule: Q01DX009 (ip), vehicle: saline
  T/C: 141 % of control
dose: 1.78 mg/kg/injection, schedule: Q04DX003 (ip), vehicle: saline
  T/C: 127 % of control
dose: 2.66 mg/kg/injection, schedule: Q04DX003 (ip), vehicle: saline
  T/C: 145 % of control
dose: 3.0 mg/kg/injection, schedule: Q01DX009 (ip), vehicle: saline
  T/C: 145 % of control
dose: 4.0 mg/kg/injection, schedule: Q04DX003 (ip), vehicle: saline
  survivor count: 5 of 6
dose: 8.0 mg/kg/injection, schedule: Q04DX003 (ip), vehicle: saline
  survivor count: 0 of 6
dose: 50.0 mg/kg/injection, schedule: Q04DX003 (ip), vehicle: saline
  survivor count: 2 of 6

## O=C(Nc1ccc(C(=O)Nc2cc(S(=O)(=O)O)cc3cccc(S(=O)(=O)O)c23)cc1)Nc1ccc(C(=O)Nc2cc(S(=O)(=O)O)cc3cccc(S(=O)(=O)O)c23)cc1
dose: 200.0 mg/kg/injection, schedule: Q01DX009 (ip), vehicle: Klucel (hydroxypropylcellulose) (HPC)
  survivor count: 2 of 6

## ClCCN(CCCl)CCCN1c2ccccc2Sc2ccc(Cl)cc21
dose: 3.1 mg/kg/injection, schedule: Q04DX003 (ip), vehicle: saline with Tween-80
  T/C: 138 % of control
dose: 12.5 mg/kg/injection, schedule: Q04DX003 (ip), vehicle: saline with Tween-80
  T/C: 128 % of control
dose: 25.0 mg/kg/injection, schedule: Q04DX003 (ip), vehicle: saline with Tween-80
  survivor count: 4 of 6

## C=CCOC(=O)c1ccccc1N
dose: 400.0 mg/kg/injection, schedule: Q01DX009 (ip), vehicle: saline with Tween-80
  survivor count: 0 of 1

## Cc1ccc(OCc2c(COc3ccc(Cl)cc3)sc3ccc(Cl)cc23)cc1
dose: 50.0 mg/kg/injection, schedule: Q04DX003 (ip), vehicle: saline with Tween-80
  survivor count: 6 of 6

## CC([CH2][Hg][Cl])c1ccccc1 (stereo not drawn)
dose: 6.25 mg/kg/injection, schedule: Q01DX009 (ip), vehicle: saline with Tween-80
  T/C: 127 % of control

## Cc1cc(C)c([I+]c2c(C)cc(C)cc2C)c(C)c1
dose: 0.82 mg/kg/injection, schedule: Q04DX003 (ip), vehicle: saline
  T/C: 125 % of control
dose: 1.65 mg/kg/injection, schedule: Q04DX003 (ip), vehicle: saline
  T/C: 130 % of control
dose: 2.48 mg/kg/injection, schedule: Q04DX003 (ip), vehicle: saline
  survivor count: 4 of 6
dose: 3.3 mg/kg/injection, schedule: Q04DX003 (ip), vehicle: saline
  survivor count: 3 of 6
dose: 12.0 mg/kg/injection, schedule: Q01DX009 (ip), vehicle: Klucel (hydroxypropylcellulose) (HPC)
  survivor count: 3 of 6
dose: 12.0 mg/kg/injection, schedule: Q04DX003 (ip), vehicle: Klucel (hydroxypropylcellulose) (HPC)
  T/C: 125 and 133 % of control
dose: 12.0 mg/kg/injection, schedule: Q04DX003 (ip), vehicle: saline with Tween-80
  T/C: 143 % of control
dose: 18.0 mg/kg/injection, schedule: Q04DX003 (ip), vehicle: Klucel (hydroxypropylcellulose) (HPC)
  survivor count: 6 of 6
dose: 18.0 mg/kg/injection, schedule: Q04DX003 (ip), vehicle: saline with Tween-80
  survivor count: 4 of 6
dose: 25.0 mg/kg/injection, schedule: Q04DX003 (ip), vehicle: Klucel (hydroxypropylcellulose) (HPC)
  survivor count: 2 of 6
dose: 50.0 mg/kg/injection, schedule: Q04DX003 (ip), vehicle: Klucel (hydroxypropylcellulose) (HPC)
  survivor count: 0 of 6
dose: 100.0 mg/kg/injection, schedule: Q04DX003 (ip), vehicle: Klucel (hydroxypropylcellulose) (HPC)
  survivor count: 0 of 6
dose: 200.0 mg/kg/injection, schedule: Q04DX003 (ip), vehicle: Klucel (hydroxypropylcellulose) (HPC)
  survivor count: 0 of 6
dose: 400.0 mg/kg/injection, schedule: Q04DX003 (ip), vehicle: Klucel (hydroxypropylcellulose) (HPC)
  survivor count: 0 of 6
